# At least one structure is not confirmed: it was looked up by name or label, or the drawing left a doubt. Marks after values point to notes of the source that are not given here.
# Assays:
# [1] = Format C1 autoluminescence, substrate in DMSO; conditions: 25 mM thiourea, Format C1, native coelenterazine
# [2] = Format C1 autoluminescence, substrate in DMSO; conditions: 25 mM thiourea, Format C1, coelenterazine analog H
# [3] = Format C1 autoluminescence, substrate in DMSO; conditions: 25 mM thiourea, Format C1, coelenterazine analog HPC
# [4] = Format C1 autoluminescence, substrate in DMSO; conditions: 25 mM thiourea, Format C1, coelenterazine analog CP
# [5] = Format C1 autoluminescence, substrate in DMSO; conditions: 25 mM thiourea, Format C1, Cypridina coelenterazine
# [6] = Format C1 autoluminescence, substrate in DMSO, alkaline environment; conditions: 25 mM thiourea, Beetle luciferin
# [7] = Format C2 autoluminescence, substrate in MB with detergent; conditions: 25 mM thiourea, Format C2, native coelenterazine
# [8] = as above; conditions: 25 mM thiourea, Format C2, coelenterazine analog N
# [9] = as above; conditions: 25 mM thiourea, Format C2, coelenterazine analog F
# [10] = as above; conditions: 25 mM thiourea, Format C2, coelenterazine analog H
# [11] = as above; conditions: 25 mM thiourea, Format C2, coelenterazine analog HPC
# [12] = as above; conditions: 25 mM thiourea, Format C2, coelenterazine analog CP
# [13] = as above; conditions: 25 mM thiourea, Format C2, Cypridina coelenterazine
# [14] = Format C3 autoluminescence, MB with BSA, pH 9, H2O2; conditions: 50 mM thiourea, Format C3 (pH 9, 1.5% H2O2), native coelenterazine
# [15] = Format D1 CDP-Star + thiourea in water, luminescence
# [16] = Format D2 CDP-Star undiluted, luminescence; conditions: 10 mM thiourea, Format D2, CDP-Star alone
# [17] = Format D3 Luminol / H2O2 chemiluminescence; conditions: 25 mM thiourea
# [18] = Effect of pH on coelenterazine autoluminescence, Matthew's Buffer with Detergent; conditions: for Fold Reduction: 3 mM thiourea
# [19] = Effect of pH on coelenterazine autoluminescence, Matthew's Buffer without Detergent; conditions: for Fold Reduction: 3 mM thiourea
structure (smiles),measurement,setting,value
NC(N)=S [thiourea],Fold decrease autoluminescence,[1],4.8 fold
same,Fold decrease autoluminescence,[2],1.8 fold
same,Fold decrease autoluminescence,[3],7.2 fold
same,Fold decrease autoluminescence,[4],8.7 fold
same,Fold decrease autoluminescence,[5],4.2 fold
same,Fold decrease autoluminescence,[6],3.8 fold
same,Fold decrease autoluminescence,[7],1100 fold
same,Fold decrease autoluminescence,[8],950 fold
same,Fold decrease autoluminescence,[9],770 fold
same,Fold decrease autoluminescence,[10],720 fold
same,Fold decrease autoluminescence,[11],910 fold
same,Fold decrease autoluminescence,[12],900 fold
same,Fold decrease autoluminescence,[13],310 fold
same,Fold decrease autoluminescence,[14],48 fold
same,Fold decrease luminescence,"[15]; 25 mM thiourea (final), Format D1 95% CDP-Star",2 fold
same,Fold decrease luminescence,"[15]; 125 mM thiourea (final), Format D1 75% CDP-Star",6 fold
same,Fold decrease luminescence,"[15]; 250 mM thiourea (final), Format D1 50% CDP-Star",40 fold
same,Fold decrease luminescence,[16],1.6* fold
same,Fold decrease luminescence,"[17]; Format D3, 0.00015% H2O2",3840 fold
same,Fold decrease luminescence,"[17]; Format D3, 0.0015% H2O2","150,000 fold"
same,Fold Reduction,"[18]; pH 4, with detergent",38.3 fold
same,Fold Reduction,"[18]; pH 5, with detergent",81.7 fold
same,Fold Reduction,"[18]; pH 6, with detergent",266.8 fold
same,Fold Reduction,"[18]; pH 7, with detergent",193.6 fold
same,Fold Reduction,"[18]; pH 8, with detergent",138.4 fold
same,Fold Reduction,"[18]; pH 9, with detergent",204.4 fold
same,Luminescence with 3 mM thiourea,"[18]; pH 4, with detergent",.0375 relative light units
same,Luminescence with 3 mM thiourea,"[18]; pH 5, with detergent",.04625 relative light units
same,Luminescence with 3 mM thiourea,"[18]; pH 6, with detergent",.21 relative light units
same,Luminescence with 3 mM thiourea,"[18]; pH 7, with detergent",.71 relative light units
same,Luminescence with 3 mM thiourea,"[18]; pH 8, with detergent",1.62 relative light units
same,Luminescence with 3 mM thiourea,"[18]; pH 9, with detergent",1.77 relative light units
same,Fold Reduction,"[19]; pH 4, without detergent",3.7 fold
same,Fold Reduction,"[19]; pH 5, without detergent",8.4 fold
same,Fold Reduction,"[19]; pH 6, without detergent",12.4 fold
same,Fold Reduction,"[19]; pH 7, without detergent",14 fold
same,Fold Reduction,"[19]; pH 8, without detergent",26.1 fold
same,Fold Reduction,"[19]; pH 9, without detergent",31.6 fold
same,Luminescence with 3 mM thiourea,"[19]; pH 4, without detergent",0.025 relative light units
same,Luminescence with 3 mM thiourea,"[19]; pH 5, without detergent",0.024 relative light units
same,Luminescence with 3 mM thiourea,"[19]; pH 6, without detergent",0.063 relative light units
same,Luminescence with 3 mM thiourea,"[19]; pH 7, without detergent",0.259 relative light units
same,Luminescence with 3 mM thiourea,"[19]; pH 8, without detergent",1.52 relative light units
same,Luminescence with 3 mM thiourea,"[19]; pH 9, without detergent",1.785 relative light units

# Source: US7108996B2, “Method for increasing luminescence assay sensitivity” (Promega Corporation, priority 2000, dated 2006)
